Reference: the supplement of paper PMC10849652
The other results are listed elsewhere or left out. Residues, ends and D or L forms follow the SMILES beside them. *: point of attachment. Cbz = O=C(OCc1ccccc1)*

The chains behind the UniProt entries cited, without tags or fusion partners. Where a name states a change or a piece, a line headed by the entry shows the natural chain unless it says otherwise.
UniProt P05387, whole entry, looked up: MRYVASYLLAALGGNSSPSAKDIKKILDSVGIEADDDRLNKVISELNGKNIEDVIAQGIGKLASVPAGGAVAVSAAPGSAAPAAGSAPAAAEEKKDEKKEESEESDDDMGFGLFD
UniProt P23921: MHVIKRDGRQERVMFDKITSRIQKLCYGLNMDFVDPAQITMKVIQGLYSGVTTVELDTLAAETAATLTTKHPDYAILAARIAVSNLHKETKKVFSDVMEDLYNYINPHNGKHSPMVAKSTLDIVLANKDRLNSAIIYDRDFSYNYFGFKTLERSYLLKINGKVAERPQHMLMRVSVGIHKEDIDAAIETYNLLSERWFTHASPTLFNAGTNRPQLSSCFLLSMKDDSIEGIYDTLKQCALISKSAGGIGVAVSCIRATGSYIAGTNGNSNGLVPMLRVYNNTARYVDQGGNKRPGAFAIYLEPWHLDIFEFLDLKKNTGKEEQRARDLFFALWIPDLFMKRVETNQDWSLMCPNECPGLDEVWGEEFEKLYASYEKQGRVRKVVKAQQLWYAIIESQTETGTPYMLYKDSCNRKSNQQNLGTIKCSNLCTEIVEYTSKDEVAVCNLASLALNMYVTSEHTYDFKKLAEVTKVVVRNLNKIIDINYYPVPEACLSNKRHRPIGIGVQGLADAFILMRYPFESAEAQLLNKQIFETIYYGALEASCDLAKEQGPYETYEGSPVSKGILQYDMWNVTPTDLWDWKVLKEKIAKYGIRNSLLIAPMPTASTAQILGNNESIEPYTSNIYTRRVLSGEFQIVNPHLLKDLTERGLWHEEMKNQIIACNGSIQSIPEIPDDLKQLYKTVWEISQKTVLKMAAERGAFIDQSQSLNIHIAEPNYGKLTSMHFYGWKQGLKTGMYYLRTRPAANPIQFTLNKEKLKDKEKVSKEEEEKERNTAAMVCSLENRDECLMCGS
UniProt O43148, whole entry, looked up: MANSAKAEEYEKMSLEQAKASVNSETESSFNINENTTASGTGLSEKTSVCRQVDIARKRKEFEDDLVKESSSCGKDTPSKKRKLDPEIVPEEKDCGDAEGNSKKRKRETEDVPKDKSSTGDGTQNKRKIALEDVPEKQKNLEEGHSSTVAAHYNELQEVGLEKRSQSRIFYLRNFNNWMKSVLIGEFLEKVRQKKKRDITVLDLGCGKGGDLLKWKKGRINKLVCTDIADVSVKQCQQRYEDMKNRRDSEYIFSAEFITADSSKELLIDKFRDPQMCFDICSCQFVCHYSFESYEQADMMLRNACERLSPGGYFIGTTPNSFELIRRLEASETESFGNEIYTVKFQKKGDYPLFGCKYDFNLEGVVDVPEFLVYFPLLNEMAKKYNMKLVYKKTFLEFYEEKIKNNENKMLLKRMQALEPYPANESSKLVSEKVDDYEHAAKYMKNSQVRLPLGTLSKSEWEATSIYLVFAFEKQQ
UniProt P15927: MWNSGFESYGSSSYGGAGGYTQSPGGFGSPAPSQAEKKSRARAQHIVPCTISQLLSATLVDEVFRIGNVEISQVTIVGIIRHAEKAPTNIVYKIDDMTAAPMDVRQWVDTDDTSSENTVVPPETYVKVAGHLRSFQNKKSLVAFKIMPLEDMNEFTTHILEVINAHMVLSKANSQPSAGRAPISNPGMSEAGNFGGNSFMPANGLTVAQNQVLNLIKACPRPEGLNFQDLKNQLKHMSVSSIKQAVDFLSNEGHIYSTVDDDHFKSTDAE
UniProt Q9BWH6: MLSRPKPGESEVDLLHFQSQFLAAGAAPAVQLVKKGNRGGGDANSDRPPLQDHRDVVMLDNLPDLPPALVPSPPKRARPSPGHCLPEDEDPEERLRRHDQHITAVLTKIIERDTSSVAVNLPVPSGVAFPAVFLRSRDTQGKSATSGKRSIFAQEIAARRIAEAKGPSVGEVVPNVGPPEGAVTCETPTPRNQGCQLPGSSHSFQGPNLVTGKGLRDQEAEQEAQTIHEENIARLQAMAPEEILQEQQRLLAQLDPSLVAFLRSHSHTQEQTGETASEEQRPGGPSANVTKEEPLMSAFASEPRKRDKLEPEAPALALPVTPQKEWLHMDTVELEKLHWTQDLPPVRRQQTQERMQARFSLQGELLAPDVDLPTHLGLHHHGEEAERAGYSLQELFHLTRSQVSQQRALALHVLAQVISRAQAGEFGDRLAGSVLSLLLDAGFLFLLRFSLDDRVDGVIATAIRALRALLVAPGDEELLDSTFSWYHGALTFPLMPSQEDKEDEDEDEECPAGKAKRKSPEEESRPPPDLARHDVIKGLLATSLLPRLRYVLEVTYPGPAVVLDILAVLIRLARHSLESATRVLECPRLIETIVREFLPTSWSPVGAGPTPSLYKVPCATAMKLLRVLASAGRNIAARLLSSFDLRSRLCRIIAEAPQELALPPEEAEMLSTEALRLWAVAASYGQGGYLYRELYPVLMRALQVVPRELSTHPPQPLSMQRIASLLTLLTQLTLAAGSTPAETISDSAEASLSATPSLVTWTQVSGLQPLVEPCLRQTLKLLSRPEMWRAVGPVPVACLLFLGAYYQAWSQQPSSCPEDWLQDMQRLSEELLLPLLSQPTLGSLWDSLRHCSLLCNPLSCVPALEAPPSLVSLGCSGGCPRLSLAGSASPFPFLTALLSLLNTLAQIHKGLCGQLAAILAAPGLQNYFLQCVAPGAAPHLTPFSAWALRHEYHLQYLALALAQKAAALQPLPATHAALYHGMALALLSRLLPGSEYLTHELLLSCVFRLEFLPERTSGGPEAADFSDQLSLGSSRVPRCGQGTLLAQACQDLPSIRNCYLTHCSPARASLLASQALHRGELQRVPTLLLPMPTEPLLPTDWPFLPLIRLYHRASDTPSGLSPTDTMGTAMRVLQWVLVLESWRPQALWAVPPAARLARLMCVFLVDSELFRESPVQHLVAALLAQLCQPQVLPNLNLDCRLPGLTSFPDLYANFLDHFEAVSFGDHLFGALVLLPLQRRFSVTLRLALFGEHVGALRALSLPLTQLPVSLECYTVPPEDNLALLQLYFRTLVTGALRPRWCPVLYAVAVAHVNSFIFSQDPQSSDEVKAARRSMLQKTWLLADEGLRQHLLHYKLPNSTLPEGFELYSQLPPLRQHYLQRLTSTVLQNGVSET
UniProt P23443: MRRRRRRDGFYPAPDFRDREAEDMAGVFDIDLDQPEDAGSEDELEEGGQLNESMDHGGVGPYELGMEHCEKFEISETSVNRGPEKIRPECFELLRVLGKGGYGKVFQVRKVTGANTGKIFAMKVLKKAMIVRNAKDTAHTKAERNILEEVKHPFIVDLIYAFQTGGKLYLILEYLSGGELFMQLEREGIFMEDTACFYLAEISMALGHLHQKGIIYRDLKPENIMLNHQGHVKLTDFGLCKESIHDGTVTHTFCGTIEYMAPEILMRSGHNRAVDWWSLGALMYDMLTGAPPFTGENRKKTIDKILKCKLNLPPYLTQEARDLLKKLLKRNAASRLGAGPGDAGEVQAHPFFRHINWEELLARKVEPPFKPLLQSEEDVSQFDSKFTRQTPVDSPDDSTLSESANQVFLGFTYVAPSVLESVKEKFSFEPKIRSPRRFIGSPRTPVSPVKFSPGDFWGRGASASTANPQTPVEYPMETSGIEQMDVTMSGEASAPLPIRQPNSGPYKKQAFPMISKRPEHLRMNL
UniProt Q7LG56, whole entry, looked up: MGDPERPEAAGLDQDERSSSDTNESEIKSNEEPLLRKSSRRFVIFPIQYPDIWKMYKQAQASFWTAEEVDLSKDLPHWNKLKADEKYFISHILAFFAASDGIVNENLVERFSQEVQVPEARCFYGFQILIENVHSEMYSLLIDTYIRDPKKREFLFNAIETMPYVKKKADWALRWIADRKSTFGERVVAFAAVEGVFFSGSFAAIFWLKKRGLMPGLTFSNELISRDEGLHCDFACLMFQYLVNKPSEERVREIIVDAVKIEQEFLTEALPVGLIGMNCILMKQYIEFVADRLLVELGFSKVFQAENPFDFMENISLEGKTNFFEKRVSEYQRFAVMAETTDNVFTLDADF

Assays:
Experiment in all cases: log2 fold change, soluble protein after heating vs DMSO (PISA); higher = thermal stabilisation; K562 cells, 10 uM, 30 min; active = over 0.2 and 3.5 SD of the protein, either way, in both replicates (recomputed)
erlotinib = compound: C#Cc1cccc(Nc2ncnc3cc(OCCOC)c(OCCOC)cc23)c1 [erlotinib]
Summary of the method: (§1)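 K562 cells at 2×10^6 cells/mL were exposed to 10 μM compound for 30 min, then aliquots were heated for 3 min across 48°C-58°C, pooled, and extracted in PBS containing 0.5% NP-40 at 4°C. The supernatant after 21,000xg for 90 min was taken as soluble protein and measured by TMTpro 16plex LC-MS/MS with channel sums equalised. Thermal stability is reported relative to control samples, with values from duplicates. Fold changes are given on a log2 scale.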

[1] = compound: C/C(=N\NC(=O)C1=CC(=CC=C1)S(=O)(=O)N2CCOCC2)/C3=C(C=CC(=C3)Cl)O
Summary of the method: as §1

[2] = compound: C1=CC(=C(C=C1Cl)C2=NC3=NC=CN=C3C(=N2)NC4=CC=NC=C4)F
Summary of the method: as §1

[3] = compound: C1=CC(=CC=C1C2=NC3=C(N2)C=C(C=C3)C(=O)N)OC4=CC=C(C=C4)Cl
Summary of the method: as §1

[4] = compound: C1=CC2=C(C=CC(=C2)/C=C\3/C(=O)NC(=NCC4=CC=CS4)S3)N=C1
Summary of the method: as §1

[5] = compound: C1=CC2=NC=CN=C2C=C1/C=C/3\C(=O)NC(=O)S3
Summary of the method: as §1

[6] = compound: C1=CC=C(C=C1)C2=NC(=C(N2)C3=CC=NC=C3)C4=CC(=C(C=C4)Cl)O
Summary of the method: as §1

[7] = compound: C1=CC=C2C(=C1)C3=NNC4=CC=CC(=C43)C2=O
Summary of the method: as §1

[8] = compound: C1CCN(C1)C(=O)NC2=CC=CC(=C2)NC3=NC=C(C(=N3)NCCC4=CN=CN4)Br
Summary of the method: as §1

[9] = compound: C1CN(CCC1(CC2=CC=C(C=C2)Cl)N)C3=NC=NC4=C3C=CN4
Summary of the method: as §1

IRAK-1-4 Inhibitor I = compound: C1COCCN1CCN2C3=CC=CC=C3N=C2NC(=O)C4=CC(=CC=C4)[N+](=O)[O-] [IRAK-1-4 Inhibitor I]
Summary of the method: as §1

ibrutinib = compound: C=CC(=O)N1CCC[C@@H](n2nc(-c3ccc(Oc4ccccc4)cc3)c3c(N)ncnc32)C1 [ibrutinib]
Summary of the method: as §1

[10] = compound: CC(=O)c1cnc2ccc(-c3cc(Cl)c(O)c(Cl)c3)nc2c1N[C@H]1CC[C@H](CN(C)C)CC1
Summary of the method: as §1

ralimetinib = compound: CC(C)(C)Cn1c(N)nc2ccc(-c3[nH]c(C(C)(C)C)nc3-c3ccc(F)cc3)nc21 [ralimetinib]
Summary of the method: as §1

[11] = compound: CC(C)(O)CC(=O)NCCn1ccc2ncnc(Nc3ccc(Oc4cccc(C(F)(F)F)c4)c(Cl)c3)c21
Summary of the method: as §1

[12] = compound: CC(C)C1=C2N=C(C=C(N2N=C1)NCC3=CC=CC=C3)NCCCCCCN
Summary of the method: as §1

[13] = compound: CC(C)C[C@@H](C=O)NC(=O)[C@H](CC(C)C)NC(=O)[C@H](CC(C)C)NC(=O)OCc1ccccc1
Summary of the method: as §1

pinometostat = compound: CC(C)N(C[C@H]1O[C@@H](n2cnc3c(N)ncnc32)[C@H](O)[C@@H]1O)[C@H]1C[C@@H](CCc2nc3cc(C(C)(C)C)ccc3[nH]2)C1 [pinometostat]
Summary of the method: as §1

[14] = compound: CC1=C(C(CC(=O)N1)C2=CC=C(C=C2)C(F)(F)F)C(=O)NC3=C(C=C4C(=C3)C=NN4)F
Summary of the method: as §1

[15] = compound: CC1=C(C2=C(C=C1)C(=O)C3=CC=CC=C3N2CCCN)C
Summary of the method: as §1

Measured: log2 fold change

RPLP2 (UniProt P05387)
inactive: erlotinib -0.331 | [1] -0.276 | [2] -0.841 | [3] 0.04 | [4] -0.136 | [5] 0 | [6] -0.108 | [7] -0.001 | [8] -0.015 | [9] -0.25 | IRAK-1-4 Inhibitor I -0.229 | ibrutinib 0.029 | [10] 0.168 | ralimetinib 0.176 | [11] 0.068 | [12] 0.051 | [13] 0.145 | pinometostat 0.382 | [14] 0.097 | [15] -0.768

RPL35 (UniProt P42766)
inactive: erlotinib -0.235 | [1] -0.248 | [2] -0.703 | [3] 0.048 | [4] -0.157 | [5] -0.077 | [6] -0.12 | [7] -0.016 | [8] 0.123 | [9] -0.223 | IRAK-1-4 Inhibitor I -0.171 | ibrutinib 0.07 | [10] 0.108 | ralimetinib 0.275 | [11] 0.112 | [12] -0.032 | [13] 0.194 | pinometostat 0.384 | [14] 0.063 | [15] -0.676

RRM1 (UniProt P23921)
inactive: erlotinib -0.018 | [1] 0 | [2] 0.048 | [3] 0.019 | [4] -0.017 | [5] 0.004 | [6] 0.006 | [7] 0.003 | [8] 0.015 | [9] 0.062 | IRAK-1-4 Inhibitor I 0.029 | ibrutinib 0.003 | [10] 0.004 | ralimetinib -0.039 | [11] -0.121 | [12] 0.014 | [13] -0.002 | pinometostat -0.038 | [14] 0.007 | [15] 0.071

RNMT isoform 2 (UniProt O43148)
inactive: erlotinib -0.033 | [1] -0.093 | [2] -0.024 | [3] -0.007 | [4] 0.119 | [5] 0.022 | [6] -0.041 | [7] -0.029 | [8] 0.026 | [9] -0.047 | IRAK-1-4 Inhibitor I -0.041 | ibrutinib 0.019 | [10] 0.013 | ralimetinib 0.042 | [11] 0.02 | [12] 0.048 | [13] 0.072 | pinometostat 0.042 | [14] 0.012 | [15] 0.122

RPA2 isoform 3 (UniProt P15927)
inactive: erlotinib -0.017 | [1] -0.038 | [2] 0.061 | [3] -0.019 | [4] 0.087 | [5] 0 | [6] -0.107 | [7] -0.015 | [8] 0.052 | [9] -0.021 | IRAK-1-4 Inhibitor I 0.023 | ibrutinib 0.04 | [10] -0.003 | ralimetinib -0.086 | [11] 0.014 | [12] 0.024 | [13] 0.094 | pinometostat -0.012 | [14] 0.111 | [15] 0.03

RPL36 (UniProt Q9Y3U8)
inactive: erlotinib -0.379 | [1] -0.335 | [2] -1.03 | [3] 0.092 | [4] -0.169 | [5] -0.039 | [6] -0.105 | [7] 0.022 | [8] -0.008 | [9] -0.319 | IRAK-1-4 Inhibitor I -0.338 | ibrutinib 0.033 | [10] 0.28 | ralimetinib 0.269 | [11] 0 | [12] 0.04 | [13] 0.149 | pinometostat 0.418 | [14] 0.156 | [15] -0.916

RPL35A (UniProt P18077)
inactive: erlotinib -0.466 | [1] -0.465 | [2] -1.14 | [3] 0.06 | [4] -0.27 | [5] -0.065 | [6] -0.117 | [7] -0.008 | [8] 0.121 | [9] -0.291 | IRAK-1-4 Inhibitor I -0.205 | ibrutinib 0.029 | [10] 0.228 | ralimetinib 0.193 | [11] 0.113 | [12] -0.016 | [13] 0.142 | pinometostat 0.601 | [14] 0.098 | [15] -0.791

RPL36AL (UniProt Q969Q0)
inactive: erlotinib -0.092 | [1] -0.165 | [2] -0.347 | [3] -0.012 | [4] -0.3 | [5] -0.018 | [6] 0.073 | [7] 0.018 | [8] 0.022 | [9] -0.21 | IRAK-1-4 Inhibitor I -0.477 | ibrutinib 0.038 | [10] 0.24 | ralimetinib 0.497 | [11] 0.037 | [12] 0.062 | [13] -0.001 | pinometostat 0 | [14] 0.095 | [15] -0.684

RPL10A (UniProt P62906)
inactive: erlotinib -0.41 | [1] -0.403 | [2] -1.07 | [3] 0.085 | [4] -0.235 | [5] -0.054 | [6] -0.091 | [7] 0.039 | [8] 0.02 | [9] -0.484 | IRAK-1-4 Inhibitor I -0.217 | ibrutinib 0.051 | [10] 0.262 | ralimetinib 0.239 | [11] 0.067 | [12] -0.007 | [13] 0.206 | pinometostat 0.628 | [14] 0.094 | [15] -1.16

RPAP1 (UniProt Q9BWH6)
inactive: erlotinib 0.024 | [1] 0.007 | [2] 0.035 | [3] 0.015 | [4] -0.007 | [5] 0.024 | [6] 0.025 | [7] 0.017 | [8] -0.023 | [9] 0.044 | IRAK-1-4 Inhibitor I -0.002 | ibrutinib 0.023 | [10] -0.067 | ralimetinib 0.022 | [11] -0.054 | [12] -0.059 | [13] 0.019 | pinometostat 0.032 | [14] -0.022 | [15] -0.004

RPL17 isoform 3 (UniProt P18621)
inactive: erlotinib -0.281 | [1] -0.163 | [2] -0.607 | [3] 0.043 | [4] -0.22 | [5] -0.088 | [6] 0.075 | [7] 0.024 | [8] 0.079 | [9] -0.232 | IRAK-1-4 Inhibitor I -0.201 | ibrutinib 0.202 | [10] 0.174 | ralimetinib 0.248 | [11] 0.023 | [12] -0.027 | [13] 0.216 | pinometostat 0.33 | [14] -0.005 | [15] -0.661

Random excerpt: 2 records from the list, in no set order.
RPL35A (UniProt P18077)
inactive: erlotinib -0.466 | [1] -0.465 | [2] -1.14 | [3] 0.06 | [4] -0.27 | [5] -0.065 | [6] -0.117 | [7] -0.008 | [8] 0.121 | [9] -0.291 | IRAK-1-4 Inhibitor I -0.205 | ibrutinib 0.029 | [10] 0.228 | ralimetinib 0.193 | [11] 0.113 | [12] -0.016 | [13] 0.142 | pinometostat 0.601 | [14] 0.098 | [15] -0.791

RPL10A (UniProt P62906)
inactive: erlotinib -0.41 | [1] -0.403 | [2] -1.07 | [3] 0.085 | [4] -0.235 | [5] -0.054 | [6] -0.091 | [7] 0.039 | [8] 0.02 | [9] -0.484 | IRAK-1-4 Inhibitor I -0.217 | ibrutinib 0.051 | [10] 0.262 | ralimetinib 0.239 | [11] 0.067 | [12] -0.007 | [13] 0.206 | pinometostat 0.628 | [14] 0.094 | [15] -1.16

Following part

RPL6 (UniProt Q02878)
inactive: erlotinib -0.468 | [1] -0.289 | [2] -0.848 | [3] 0.093 | [4] -0.126 | [5] -0.035 | [6] -0.141 | [7] 0.079 | [8] 0.033 | [9] -0.371 | IRAK-1-4 Inhibitor I -0.241 | ibrutinib 0.062 | [10] 0.285 | ralimetinib 0.248 | [11] 0.266 | [12] 0.028 | [13] 0.185 | pinometostat 0.59 | [14] 0.072 | [15] -0.908

RPS6KB1 (UniProt P23443)
inactive: erlotinib 0.004 | [1] 0.024 | [2] 0.037 | [3] 0.009 | [4] -0.007 | [5] 0.106 | [6] -0.002 | [7] 0.006 | [8] -0.014 | [9] 0.118 | IRAK-1-4 Inhibitor I 0.073 | ibrutinib -0.005 | [10] 0.107 | ralimetinib -0.032 | [11] -0.064 | [12] -0.051 | [13] 0.091 | pinometostat 0.028 | [14] 0.054 | [15] 0.024

RPL5 (UniProt P46777)
inactive: erlotinib -0.095 | [1] -0.219 | [2] -0.434 | [3] -0.03 | [4] -0.137 | [5] -0.026 | [6] -0.056 | [7] -0.035 | [8] 0.031 | [9] -0.121 | IRAK-1-4 Inhibitor I -0.186 | ibrutinib 0.058 | [10] 0.077 | ralimetinib 0.121 | [11] 0.072 | [12] 0.052 | [13] 0.114 | pinometostat 0.198 | [14] 0.065 | [15] -0.11

RPL28 (UniProt P46779)
inactive: erlotinib -0.372 | [1] -0.355 | [2] -1.14 | [3] 0.054 | [4] -0.21 | [5] -0.052 | [6] -0.146 | [7] 0.03 | [8] 0.069 | [9] -0.362 | IRAK-1-4 Inhibitor I -0.201 | ibrutinib 0.098 | [10] 0.303 | ralimetinib 0.26 | [11] 0.009 | [12] -0.002 | [13] 0.145 | pinometostat 0.505 | [14] 0.041 | [15] -0.75

RRM2B isoform 6 (UniProt Q7LG56)
inactive: erlotinib -0.015 | [1] 0 | [2] 0.008 | [3] 0.012 | [4] 0.099 | [5] 0.008 | [6] -0.094 | [7] 0.022 | [8] -0.009 | [9] 0.043 | IRAK-1-4 Inhibitor I 0.019 | ibrutinib 0.025 | [10] -0.057 | ralimetinib -0.022 | [11] 0.024 | [12] 0.069 | [13] 0.013 | pinometostat 0.05 | [14] -0.016 | [15] 0.023
